{"source": "PubChem BioAssay AID686943 (Drosophila RNAi Screening Center, 2013)", "test": "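Search across the genome for regulators of signalling from receptor tyrosine kinase to ERK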 (primary screen)", "cell system": "Drosophila S2R+ haemocyte-like cells expressing YFP-tagged ERK (Rolled)", "reagent": "long dsRNA against Drosophila genes", "challenge": "insulin stimulation versus unstimulated cells; dose and duration not given", "measured": "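Per-plate z-scores of phospho-ERK immunostaining normalised to YFP-tagged ERK, measured with and without insulin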", "scale": "replicate 1, z-score of dpERK with insulin and replicate 2, z-score of dpERK with insulin: higher = more active ERK per ERK-YFP after insulin", "note": "The deposit covers about 23,000 reagents; shown is a random part of those with a known target gene and a result. 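Extra replicates exist only for a retested subset of genes; insulin dose and duration not given; both raised and lowered dpERK matter.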 Reagents against one gene are numbered here. A plus sign joins genes that one reagent is predicted to hit. Not all columns of the deposit are shown. Not given: the amount of reagent, the time to read-out."}
{"target gene": "CCHa1-R", "reagent no.": 1, "replicate 1, z-score of dpERK with insulin": 0.32, "replicate 2, z-score of dpERK with insulin": 0.73}
{"target gene": "CCHa1-R", "reagent no.": 2, "replicate 1, z-score of dpERK with insulin": 0.06, "replicate 2, z-score of dpERK with insulin": -0.14}
{"target gene": "Cht7 + tRNA:Cys-GCA-1-4 + tRNA:Lys-CTT-1-13", "reagent no.": 1, "replicate 1, z-score of dpERK with insulin": 0.67, "replicate 2, z-score of dpERK with insulin": 0.5}
{"target gene": "Pka-C1", "reagent no.": 1, "replicate 1, z-score of dpERK with insulin": -2.05, "replicate 2, z-score of dpERK with insulin": -2.74}

Not a retest: 2 of the entries above.
{"target gene": "CCHa1-R", "reagent no.": 1, "replicate 1, z-score of dpERK with insulin": 0.32, "replicate 2, z-score of dpERK with insulin": 0.73}
{"target gene": "CCHa1-R", "reagent no.": 2, "replicate 1, z-score of dpERK with insulin": 0.06, "replicate 2, z-score of dpERK with insulin": -0.14}

The listing continues.
{"target gene": "CG16903", "reagent no.": 1, "replicate 1, z-score of dpERK with insulin": 1.52, "replicate 2, z-score of dpERK with insulin": -0.15}
{"target gene": "CAH14", "reagent no.": 1, "replicate 1, z-score of dpERK with insulin": 0.85, "replicate 2, z-score of dpERK with insulin": 0.43}
{"target gene": "CAH14", "reagent no.": 2, "replicate 1, z-score of dpERK with insulin": 0.17, "replicate 2, z-score of dpERK with insulin": -1.5}
{"target gene": "CG31041", "reagent no.": 1, "replicate 1, z-score of dpERK with insulin": -0.04, "replicate 2, z-score of dpERK with insulin": 0.31}
{"target gene": "esg", "reagent no.": 1, "replicate 1, z-score of dpERK with insulin": 0.23, "replicate 2, z-score of dpERK with insulin": -0.27}
{"target gene": "CG7884", "reagent no.": 1, "replicate 1, z-score of dpERK with insulin": 0.43, "replicate 2, z-score of dpERK with insulin": 1.09}
{"target gene": "Pepck2", "reagent no.": 1, "replicate 1, z-score of dpERK with insulin": 1, "replicate 2, z-score of dpERK with insulin": -1.02}
{"target gene": "CG3008", "reagent no.": 1, "replicate 1, z-score of dpERK with insulin": -0.11, "replicate 2, z-score of dpERK with insulin": 0.2}
